Test: Household Stain Resistance Test (ASTM Method D4828)
Set-up: key: (−) for negative; (=) for same; (+) for positive result

zinc di(ethyl 4,4,4-trifluoroacetoacetate) dihydrate [Additive]
Household stain resistance (degree of stain removal) (Ball-pen, Commercial Paint 1 with 0.05% Additive, relative to same commercial paint without additive): =
Household stain resistance (degree of stain removal) (Ball-pen, Commercial Paint 1 with 0.5% Additive, relative to same commercial paint without additive): =
Household stain resistance (degree of stain removal) (Ball-pen, Commercial Paint 2 with 0.05% Additive, relative to same commercial paint without additive): =
Household stain resistance (degree of stain removal) (Ball-pen, Commercial Paint 2 with 0.5% Additive, relative to same commercial paint without additive): +
Household stain resistance (degree of stain removal) (Ball-pen, paint of Table 1 with 0.05% by weight additive, relative to same paint without additive): =
Household stain resistance (degree of stain removal) (Ball-pen, paint of Table 1 with 0.5% by weight additive, relative to same paint without additive): =
Household stain resistance (degree of stain removal) (Coffee, Commercial Paint 1 with 0.05% Additive, relative to same commercial paint without additive): =
Household stain resistance (degree of stain removal) (Coffee, Commercial Paint 1 with 0.5% Additive, relative to same commercial paint without additive): +
Household stain resistance (degree of stain removal) (Coffee, Commercial Paint 2 with 0.05% Additive, relative to same commercial paint without additive): =
Household stain resistance (degree of stain removal) (Coffee, Commercial Paint 2 with 0.5% Additive, relative to same commercial paint without additive): +
Household stain resistance (degree of stain removal) (Coffee, paint of Table 1 with 0.05% by weight additive, relative to same paint without additive): =
Household stain resistance (degree of stain removal) (Coffee, paint of Table 1 with 0.5% by weight additive, relative to same paint without additive): SI −
Household stain resistance (degree of stain removal) (Crayon, Commercial Paint 1 with 0.05% Additive, relative to same commercial paint without additive): =
Household stain resistance (degree of stain removal) (Crayon, Commercial Paint 1 with 0.5% Additive, relative to same commercial paint without additive): =
Household stain resistance (degree of stain removal) (Crayon, Commercial Paint 2 with 0.05% Additive, relative to same commercial paint without additive): =
Household stain resistance (degree of stain removal) (Crayon, Commercial Paint 2 with 0.5% Additive, relative to same commercial paint without additive): =
Household stain resistance (degree of stain removal) (Crayon, paint of Table 1 with 0.05% by weight additive, relative to same paint without additive): =
Household stain resistance (degree of stain removal) (Crayon, paint of Table 1 with 0.5% by weight additive, relative to same paint without additive): =
Household stain resistance (degree of stain removal) (Ketchup, Commercial Paint 1 with 0.05% Additive, relative to same commercial paint without additive): =
Household stain resistance (degree of stain removal) (Ketchup, Commercial Paint 1 with 0.5% Additive, relative to same commercial paint without additive): =
Household stain resistance (degree of stain removal) (Ketchup, Commercial Paint 2 with 0.05% Additive, relative to same commercial paint without additive): =
Household stain resistance (degree of stain removal) (Ketchup, Commercial Paint 2 with 0.5% Additive, relative to same commercial paint without additive): =
Household stain resistance (degree of stain removal) (Ketchup, paint of Table 1 with 0.05% by weight additive, relative to same paint without additive): =
Household stain resistance (degree of stain removal) (Ketchup, paint of Table 1 with 0.5% by weight additive, relative to same paint without additive): =
Household stain resistance (degree of stain removal) (Lipstick, Commercial Paint 1 with 0.05% Additive, relative to same commercial paint without additive): =
Household stain resistance (degree of stain removal) (Lipstick, Commercial Paint 1 with 0.5% Additive, relative to same commercial paint without additive): +
Household stain resistance (degree of stain removal) (Lipstick, Commercial Paint 2 with 0.05% Additive, relative to same commercial paint without additive): =
Household stain resistance (degree of stain removal) (Lipstick, Commercial Paint 2 with 0.5% Additive, relative to same commercial paint without additive): +
Household stain resistance (degree of stain removal) (Lipstick, paint of Table 1 with 0.05% by weight additive, relative to same paint without additive): =
Household stain resistance (degree of stain removal) (Lipstick, paint of Table 1 with 0.5% by weight additive, relative to same paint without additive): +
Household stain resistance (degree of stain removal) (Marker, Commercial Paint 1 with 0.05% Additive, relative to same commercial paint without additive): =
Household stain resistance (degree of stain removal) (Marker, Commercial Paint 1 with 0.5% Additive, relative to same commercial paint without additive): =
Household stain resistance (degree of stain removal) (Marker, Commercial Paint 2 with 0.05% Additive, relative to same commercial paint without additive): =
Household stain resistance (degree of stain removal) (Marker, Commercial Paint 2 with 0.5% Additive, relative to same commercial paint without additive): =
Household stain resistance (degree of stain removal) (Marker, paint of Table 1 with 0.05% by weight additive, relative to same paint without additive): =
Household stain resistance (degree of stain removal) (Marker, paint of Table 1 with 0.5% by weight additive, relative to same paint without additive): +
Household stain resistance (degree of stain removal) (Mustard, Commercial Paint 1 with 0.05% Additive, relative to same commercial paint without additive): =
Household stain resistance (degree of stain removal) (Mustard, Commercial Paint 1 with 0.5% Additive, relative to same commercial paint without additive): =
Household stain resistance (degree of stain removal) (Mustard, Commercial Paint 2 with 0.05% Additive, relative to same commercial paint without additive): =
Household stain resistance (degree of stain removal) (Mustard, Commercial Paint 2 with 0.5% Additive, relative to same commercial paint without additive): =
Household stain resistance (degree of stain removal) (Mustard, paint of Table 1 with 0.05% by weight additive, relative to same paint without additive): −
Household stain resistance (degree of stain removal) (Mustard, paint of Table 1 with 0.5% by weight additive, relative to same paint without additive): SI +
Household stain resistance (degree of stain removal) (Pencil, paint of Table 1 with 0.05% by weight additive, relative to same paint without additive): =
Household stain resistance (degree of stain removal) (Pencil, paint of Table 1 with 0.5% by weight additive, relative to same paint without additive): +
Household stain resistance (degree of stain removal) (Red wine, Commercial Paint 1 with 0.05% Additive, relative to same commercial paint without additive): SI +
Household stain resistance (degree of stain removal) (Red wine, Commercial Paint 1 with 0.5% Additive, relative to same commercial paint without additive): =
Household stain resistance (degree of stain removal) (Red wine, Commercial Paint 2 with 0.05% Additive, relative to same commercial paint without additive): =
Household stain resistance (degree of stain removal) (Red wine, Commercial Paint 2 with 0.5% Additive, relative to same commercial paint without additive): =
Household stain resistance (degree of stain removal) (Red wine, paint of Table 1 with 0.05% by weight additive, relative to same paint without additive): SI −
Household stain resistance (degree of stain removal) (Red wine, paint of Table 1 with 0.5% by weight additive, relative to same paint without additive): =

Reference: US20220363870A1, “Stain Resistant Additive” (Arxada AG, priority 2019, published 2022)
